# The supplement of paper PMC8728848
# The other results are listed elsewhere or left out.
# B1: Epa21 (Candida glabrata) (protein)
# chain: MGSSHHHHHHSSGLVPRGSHMASTPNIESHPQGCSPVDTSGIKPGLKMDLYRFPITPPGTGCWSWDWLTVTPDFPRSGYWKWPKIAEVDGVVGPLHLDSGHPTCDPLTSVLPHGFNYLQSITTTNFTMVLHGYFVPKQSGKYTFEFKADDALLLNLGAGNAFSCCDYNNSQYNQGEYLAYAIWSKNNQTATLYLEKGIYYPIRVFYHNRCCGAYMDVVYYFNDSPIPNRDFSGLLFSIPDSDSCDANI
# Assays:
# Assay in all cases: glycan array binding signal (z-score within array); higher = stronger binding
# Settings in all cases: glycan notation: IUPAC condensed, linker removed
# Gal(a1-3)Gal = target: Gal(a1-3)Gal
# Procedure, shortened: (§1)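 Glycan array data came from 3228 arrays in the Consortium for Functional Glycomics database, and only arrays with an available protein sequence were kept. Glycan names were put into IUPAC-condensed notation, and columns mapping to the same glycan were averaged. The binding signal is a within-array Z-score, averaged across arrays of one protein sequence run at different concentrations or buffers and across linkers. A negative Z-score can be read as non-binding.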
# Gal(a1-3)Gal(b1-3)GlcNAc = target: Gal(a1-3)Gal(b1-3)GlcNAc
# Procedure, shortened: as §1
# [1] = target: Gal(a1-3)Gal(b1-3)GlcNAc(b1-2)Man
# Procedure, shortened: as §1
# [2] = target: Gal(a1-3)Gal(b1-3)GlcNAc(b1-2)Man(a1-3)[Gal(a1-3)Gal(b1-3)GlcNAc(b1-2)Man(a1-6)]Man(b1-4)GlcNAc(b1-4)GlcNAc
# Procedure, shortened: as §1
# [3] = target: Gal(a1-3)Gal(b1-3)GlcNAc(b1-3)GalNAc
# Procedure, shortened: as §1
# [4] = target: Gal(a1-3)Gal(b1-3)GlcNAc(b1-6)GalNAc
# Procedure, shortened: as §1
# [5] = target: Gal(a1-3)Gal(b1-3)[Fuc(a1-4)]GlcNAc(b1-2)Man(a1-3)[Gal(a1-3)Gal(b1-3)[Fuc(a1-4)]GlcNAc(b1-2)Man(a1-6)]Man(b1-4)GlcNAc(b1-4)GlcNAc
# Procedure, shortened: as §1
# Gal(a1-3)Gal(b1-4)Glc = target: Gal(a1-3)Gal(b1-4)Glc
# Procedure, shortened: as §1
# Gal(a1-3)Gal(b1-4)GlcNAc = target: Gal(a1-3)Gal(b1-4)GlcNAc
# Procedure, shortened: as §1
# [6] = target: Gal(a1-3)Gal(b1-4)GlcNAc(b1-2)Man
# Procedure, shortened: as §1
# [7] = target: Gal(a1-3)Gal(b1-4)GlcNAc(b1-2)Man(a1-3)[Gal(a1-3)Gal(b1-4)GlcNAc(b1-2)Man(a1-6)]Man(b1-4)GlcNAc(b1-4)GlcNAc
# Procedure, shortened: as §1
# [8] = target: Gal(a1-3)Gal(b1-4)GlcNAc(b1-3)GalNAc
# Procedure, shortened: as §1
# [9] = target: Gal(a1-3)Gal(b1-4)GlcNAc(b1-6)GalNAc
# Procedure, shortened: as §1
# [10] = target: Gal(a1-3)Gal(b1-4)[Fuc(a1-3)]GlcNAc
# Procedure, shortened: as §1
# [11] = target: Gal(a1-3)Gal(b1-4)[Fuc(a1-3)]GlcNAc(b1-2)Man(a1-3)[Gal(a1-3)Gal(b1-4)[Fuc(a1-3)]GlcNAc(b1-2)Man(a1-6)]Man(b1-4)GlcNAc(b1-4)GlcNAc
# Procedure, shortened: as §1
# Gal(a1-3)GalNAc = target: Gal(a1-3)GalNAc
# Procedure, shortened: as §1
# [12] = target: Gal(a1-3)[Gal(a1-4)]Gal(b1-4)GlcNAc
# Procedure, shortened: as §1
# [13] = target: Gal(a1-4)Gal(b1-3)GlcNAc(b1-2)Man(a1-3)[Gal(a1-4)Gal(b1-3)GlcNAc(b1-2)Man(a1-6)]Man(b1-4)GlcNAc(b1-4)GlcNAc
# Procedure, shortened: as §1
# Gal(a1-4)Gal(b1-4)Glc = target: Gal(a1-4)Gal(b1-4)Glc
# Procedure, shortened: as §1
# Gal(a1-4)Gal(b1-4)GlcNAc = target: Gal(a1-4)Gal(b1-4)GlcNAc
# Procedure, shortened: as §1
# [14] = target: Gal(a1-4)Gal(b1-4)GlcNAc(b1-2)Man(a1-3)[Gal(a1-4)Gal(b1-4)GlcNAc(b1-2)Man(a1-6)]Man(b1-4)GlcNAc(b1-4)GlcNAc
# Procedure, shortened: as §1
# [15] = target: Gal(a1-4)Gal(b1-4)GlcNAc(b1-3)Gal(b1-4)Glc
# Procedure, shortened: as §1
# Gal(a1-4)GlcNAc = target: Gal(a1-4)GlcNAc
# Procedure, shortened: as §1
# Gal(a1-6)Glc = target: Gal(a1-6)Glc
# Procedure, shortened: as §1
# Gal(b1-2)Gal = target: Gal(b1-2)Gal
# Procedure, shortened: as §1
# Gal(b1-3)Gal = target: Gal(b1-3)Gal
# Procedure, shortened: as §1
# Gal(b1-3)Gal(b1-4)GlcNAc = target: Gal(b1-3)Gal(b1-4)GlcNAc
# Procedure, shortened: as §1
# Gal(b1-3)GalNAc = target: Gal(b1-3)GalNAc
# Procedure, shortened: as §1
# [16] = target: Gal(b1-3)GalNAc(a1-3)[Fuc(a1-2)]Gal(b1-4)Glc
# Procedure, shortened: as §1
# [17] = target: Gal(b1-3)GalNAc(a1-3)[Fuc(a1-2)]Gal(b1-4)GlcNAc
# Procedure, shortened: as §1
# Gal(b1-3)GalNAc(b1-3)Gal = target: Gal(b1-3)GalNAc(b1-3)Gal
# Procedure, shortened: as §1
# [18] = target: Gal(b1-3)GalNAc(b1-3)Gal(a1-4)Gal(b1-4)Glc
# Procedure, shortened: as §1
# [19] = target: Gal(b1-3)GalNAc(b1-4)Gal(b1-4)Glc
# Procedure, shortened: as §1
# [20] = target: Gal(b1-3)GalNAc(b1-4)[Neu5Ac(a2-3)]Gal(b1-4)Glc
# Procedure, shortened: as §1
# Gal(b1-3)GlcNAc = target: Gal(b1-3)GlcNAc
# Procedure, shortened: as §1
# [21] = target: Gal(b1-3)GlcNAc(a1-3)Gal(b1-4)GlcNAc
# Procedure, shortened: as §1
# [22] = target: Gal(b1-3)GlcNAc(a1-6)Gal(b1-4)GlcNAc
# Procedure, shortened: as §1
# Gal(b1-3)GlcNAc(b1-2)Man = target: Gal(b1-3)GlcNAc(b1-2)Man
# Procedure, shortened: as §1
binder,measurement,setting,value
B1,glycan array binding signal (z-score),Gal(a1-3)Gal,1.27
same,glycan array binding signal (z-score),Gal(a1-3)Gal(b1-3)GlcNAc,0.087
same,glycan array binding signal (z-score),[1],1
same,glycan array binding signal (z-score),[2],0.663
same,glycan array binding signal (z-score),[3],-0.207
same,glycan array binding signal (z-score),[4],0.392
same,glycan array binding signal (z-score),[5],0.725
same,glycan array binding signal (z-score),Gal(a1-3)Gal(b1-4)Glc,-0.176
same,glycan array binding signal (z-score),Gal(a1-3)Gal(b1-4)GlcNAc,0.097
same,glycan array binding signal (z-score),[6],-0.08
same,glycan array binding signal (z-score),[7],-0.121
same,glycan array binding signal (z-score),[8],1.03
same,glycan array binding signal (z-score),[9],0.619
same,glycan array binding signal (z-score),[10],-0.746
same,glycan array binding signal (z-score),[11],0.829
same,glycan array binding signal (z-score),Gal(a1-3)GalNAc,-0.135
same,glycan array binding signal (z-score),[12],-0.15
same,glycan array binding signal (z-score),[13],0.367
same,glycan array binding signal (z-score),Gal(a1-4)Gal(b1-4)Glc,1.49
same,glycan array binding signal (z-score),Gal(a1-4)Gal(b1-4)GlcNAc,1.15
same,glycan array binding signal (z-score),[14],-0.322
same,glycan array binding signal (z-score),[15],0.153
same,glycan array binding signal (z-score),Gal(a1-4)GlcNAc,4.26
same,glycan array binding signal (z-score),Gal(a1-6)Glc,0.468
same,glycan array binding signal (z-score),Gal(b1-2)Gal,-0.085
same,glycan array binding signal (z-score),Gal(b1-3)Gal,0.163
same,glycan array binding signal (z-score),Gal(b1-3)Gal(b1-4)GlcNAc,0.402
same,glycan array binding signal (z-score),Gal(b1-3)GalNAc,-0.234
same,glycan array binding signal (z-score),[16],-0.135
same,glycan array binding signal (z-score),[17],0.156
same,glycan array binding signal (z-score),Gal(b1-3)GalNAc(b1-3)Gal,0.272
same,glycan array binding signal (z-score),[18],0.455
same,glycan array binding signal (z-score),[19],1.08
same,glycan array binding signal (z-score),[20],0.156
same,glycan array binding signal (z-score),Gal(b1-3)GlcNAc,-0.83
same,glycan array binding signal (z-score),[21],-0.37
same,glycan array binding signal (z-score),[22],-0.138
same,glycan array binding signal (z-score),Gal(b1-3)GlcNAc(b1-2)Man,-0.23

# 2 consecutive entries from above, for reference:
binder,measurement,setting,value
B1,glycan array binding signal (z-score),[15],0.153
same,glycan array binding signal (z-score),Gal(a1-4)GlcNAc,4.26
